Reference: PMC11372837, “Albumin-Mediated Drug Uptake by Organic Anion Transporter 1/3 Is Real: Implications for the Prediction of Active Renal Secretion Clearance” (Molecular Pharmaceutics, 2024)
Like-named read-outs stand apart in the source and are kept apart here.

By UniProt entry, the sequences of proteins in these tests, tags left out. Residues count along the entry.
UniProt P02768, 25-609: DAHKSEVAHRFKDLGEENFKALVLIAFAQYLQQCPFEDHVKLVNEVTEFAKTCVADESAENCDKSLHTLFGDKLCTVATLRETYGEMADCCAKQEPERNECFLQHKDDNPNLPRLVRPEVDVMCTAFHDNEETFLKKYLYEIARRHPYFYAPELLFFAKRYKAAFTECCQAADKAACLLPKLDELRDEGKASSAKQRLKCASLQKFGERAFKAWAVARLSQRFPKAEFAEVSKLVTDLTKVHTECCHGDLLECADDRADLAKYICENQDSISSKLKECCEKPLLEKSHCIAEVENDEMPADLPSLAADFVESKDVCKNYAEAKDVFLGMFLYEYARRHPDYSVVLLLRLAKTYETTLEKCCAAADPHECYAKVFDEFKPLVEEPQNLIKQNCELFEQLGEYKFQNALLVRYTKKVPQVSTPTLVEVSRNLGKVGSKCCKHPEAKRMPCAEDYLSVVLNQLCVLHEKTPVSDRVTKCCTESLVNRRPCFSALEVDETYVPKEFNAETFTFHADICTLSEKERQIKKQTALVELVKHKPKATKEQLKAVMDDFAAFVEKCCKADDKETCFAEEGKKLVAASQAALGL

Assays:
human serum albumin = human serum albumin (Homo sapiens, UniProt P02768); assay: Extent of albumin binding: high throughput equilibrium dialysis (fu,inc, Kd); format: in vitro ADME; conditions: mean ± SD; for fraction unbound at 6 h: human, equilibrium dialysis 37 °C 6 h
Description: Briefly, cellulose membranes with MWCO of 12–14 kDa were submerged in distilled water for 1 h, followed by 20% ethanol/distilled water for at least 20 min. Prior to the start of the experiment, cellulose membranes were rinsed in distilled water and submerged in blank DPBS for 15 min. The HTDialysis device was assembled according to the manufacturer’s instructions (https://www.htdialysis.com). Blank DPBS was first added to the receiver side of the dialysis membranes, followed by DPBS spiked with HSA and the OAT1/3 substrate to the donor side. Each HSA concentration was tested in triplicates. The HTDialysis device was sealed with an adhesive sealing film and incubated in a water bath at 37 °C for 6 h shaken at 150 rpm. Once the assay was completed, aliquots from both receiver and donor wells were transferred to a 96-well plate and stored at −80 °C until analysis. DPBS spiked with the OAT1/3 substrate from both before and after incubation was stored to assess the recovery and stability of the samples. To prepare the sample for analysis, donor and receiver samples were matrix-matched and quenched with ice-cold acetonitrile containing an internal standard (0.5 μM gemfibrozil or 0.05 μM buspirone).

[1] = human, in vivo
OAT1 = target: T1, OAT1 (Homo sapiens, UniProt Q4U2R8); assay: OAT1 uptake study in ciPTEC-OAT1; conditions: control vs probenecid 300 μM
T1 sequence (Q4U2R8 1-563): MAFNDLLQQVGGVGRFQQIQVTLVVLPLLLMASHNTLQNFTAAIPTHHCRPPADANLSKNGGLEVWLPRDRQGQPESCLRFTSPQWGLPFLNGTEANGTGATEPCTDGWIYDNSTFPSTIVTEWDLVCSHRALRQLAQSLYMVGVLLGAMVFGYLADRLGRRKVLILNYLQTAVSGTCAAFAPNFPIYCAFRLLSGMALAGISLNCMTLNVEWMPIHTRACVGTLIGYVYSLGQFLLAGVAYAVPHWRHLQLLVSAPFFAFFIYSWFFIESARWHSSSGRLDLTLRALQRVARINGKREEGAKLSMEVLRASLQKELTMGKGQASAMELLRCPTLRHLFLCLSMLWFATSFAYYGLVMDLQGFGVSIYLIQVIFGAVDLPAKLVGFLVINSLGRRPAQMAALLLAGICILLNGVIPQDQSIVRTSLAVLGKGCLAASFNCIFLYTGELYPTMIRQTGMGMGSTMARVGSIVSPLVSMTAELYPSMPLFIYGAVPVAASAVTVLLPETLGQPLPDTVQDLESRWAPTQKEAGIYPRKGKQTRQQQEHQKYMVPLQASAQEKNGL

OAT3 = target: T2, OAT3 (Homo sapiens, UniProt Q8TCC7); assay: OAT3 uptake study in ciPTEC-OAT3
T2 sequence (Q8TCC7 1-542): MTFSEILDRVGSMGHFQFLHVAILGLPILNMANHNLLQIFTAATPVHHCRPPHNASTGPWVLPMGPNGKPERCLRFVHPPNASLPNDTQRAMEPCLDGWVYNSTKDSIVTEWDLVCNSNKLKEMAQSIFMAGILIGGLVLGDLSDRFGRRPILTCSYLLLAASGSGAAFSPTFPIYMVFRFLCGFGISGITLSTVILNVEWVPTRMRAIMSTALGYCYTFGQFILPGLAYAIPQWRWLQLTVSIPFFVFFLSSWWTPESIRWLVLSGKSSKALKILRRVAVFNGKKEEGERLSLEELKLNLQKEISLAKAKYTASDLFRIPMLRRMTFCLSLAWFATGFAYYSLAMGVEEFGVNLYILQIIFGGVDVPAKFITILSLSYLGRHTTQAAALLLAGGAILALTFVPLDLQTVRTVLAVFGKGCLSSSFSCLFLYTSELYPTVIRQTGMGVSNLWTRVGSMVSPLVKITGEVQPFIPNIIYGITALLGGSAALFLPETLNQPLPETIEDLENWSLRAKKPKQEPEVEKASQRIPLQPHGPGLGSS

OAT1/3 [2] = assay: Bottom-up IVIVE of CLint,sec, CLsec and CLr, relative expression factor (REF) approach; design: species or system human
Description: (§1) The relative expression and relative activity factor (REF and RAF) are unitless scalers that account for in vivo versus in vitro differences in the abundance and activity of OAT1/3 and are used for IVIVE of in vitro CLint,u,active. REF was derived from the OAT1/3 expression ratio between the in vivo human kidney cortex to the in vitro ciPTEC-OAT1/3, as shown in eq 7: [drawing 8] 7 Absolute abundance of OAT1 and OAT3 in the human kidney cortex was previously quantified by our group using the filter-aided sample preparation protocol and global proteomic analysis.[44]

OAT1/3 [3] = assay: Bottom-up IVIVE of CLint,sec, CLsec and CLr, relative activity factor (RAF) approach; design: species or system human
Description: as §1

[4] = in vivo, plasma renal clearance, clinical data; cited from earlier work

Kd (human serum albumin; estimated using eq 3 from measured fu,inc): 26.1 ± 1.6 µM
fraction unbound at 6 h (human serum albumin; 1% human serum albumin in DPBS, 1% HSA, read-out: fu,inc (1%)): 0.162 ± 0.03
fraction unbound at 6 h (human serum albumin; 4% HSA in DPBS, 4% HSA, read-out: fu,inc (4%)): 0.038 ± 0.002
CLint,sec Observed [1]: 190 L/h
OAT1 substrate status (uptake in ciPTEC-OAT1) (OAT1; listed as Furosemide): did not show any appreciable uptake
ratio of CLint,u,active (R) (HSA/control) 1% (OAT3; OAT3, 1% HSA vs control): 6.52 ± 0.90
ratio of CLint,u,active (R) (HSA/control) 4% (OAT3; OAT3, 4% HSA vs control): 21.1 ± 7.7
CLint,sec Predicted 0% HSA (OAT1/3 [2]): 5.83 L/h
CLint,sec Predicted 1% HSA (OAT1/3 [2]): 37.8 L/h
CLint,sec Predicted 4% HSA (OAT1/3 [2]): 115 L/h
CLsec Predicted 0% HSA (OAT1/3 [2]): 0.19 L/h
CLsec Predicted 1% HSA (OAT1/3 [2]): 1.17 L/h
CLsec Predicted 4% HSA (OAT1/3 [2]): 3.32 L/h
CLint,sec Predicted 0% HSA (OAT1/3 [3]): 29.4 L/h
CLint,sec Predicted 1% HSA (OAT1/3 [3]): 191 L/h
CLint,sec Predicted 4% HSA (OAT1/3 [3]): 579 L/h
CLsec Predicted 0% HSA (OAT1/3 [3]): 0.91 L/h
CLsec Predicted 1% HSA (OAT1/3 [3]): 5.20 L/h
CLsec Predicted 4% HSA (OAT1/3 [3]): 12.2 L/h
SMILES: NS(=O)(=O)c1cc(C(=O)O)c(NCc2ccco2)cc1Cl [furosemide]
OAT1 substrate status (uptake in ciPTEC-OAT1) (OAT1): did not observe appreciable OAT1-mediated transport
CLr Observed [4]: 5.31 L/h
